Results of single-concentration screens

The chains behind the UniProt entries cited, without tags or fusion partners. Residues count along the entry.
UniProt P9WNZ1, whole entry: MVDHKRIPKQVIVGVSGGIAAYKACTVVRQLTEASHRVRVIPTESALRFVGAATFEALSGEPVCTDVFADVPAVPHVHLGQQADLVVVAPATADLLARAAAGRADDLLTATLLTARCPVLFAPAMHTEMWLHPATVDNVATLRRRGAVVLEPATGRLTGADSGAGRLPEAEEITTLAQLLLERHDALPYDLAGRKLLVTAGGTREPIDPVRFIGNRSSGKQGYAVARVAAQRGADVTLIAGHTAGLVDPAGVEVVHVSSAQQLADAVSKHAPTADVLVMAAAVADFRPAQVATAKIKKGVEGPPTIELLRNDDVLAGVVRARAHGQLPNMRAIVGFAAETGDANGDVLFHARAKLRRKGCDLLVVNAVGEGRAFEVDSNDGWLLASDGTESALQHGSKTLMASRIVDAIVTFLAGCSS
UniProt P9WFT3, whole entry: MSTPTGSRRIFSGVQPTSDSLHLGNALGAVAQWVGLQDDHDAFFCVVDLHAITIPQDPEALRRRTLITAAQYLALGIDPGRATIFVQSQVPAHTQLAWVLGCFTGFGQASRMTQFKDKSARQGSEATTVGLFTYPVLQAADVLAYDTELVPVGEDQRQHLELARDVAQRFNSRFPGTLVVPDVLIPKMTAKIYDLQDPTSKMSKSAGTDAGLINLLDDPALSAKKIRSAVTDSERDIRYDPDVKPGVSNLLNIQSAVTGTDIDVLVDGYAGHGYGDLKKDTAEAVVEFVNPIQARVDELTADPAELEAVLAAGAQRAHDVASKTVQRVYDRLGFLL
UniProt A4I591, 1-473: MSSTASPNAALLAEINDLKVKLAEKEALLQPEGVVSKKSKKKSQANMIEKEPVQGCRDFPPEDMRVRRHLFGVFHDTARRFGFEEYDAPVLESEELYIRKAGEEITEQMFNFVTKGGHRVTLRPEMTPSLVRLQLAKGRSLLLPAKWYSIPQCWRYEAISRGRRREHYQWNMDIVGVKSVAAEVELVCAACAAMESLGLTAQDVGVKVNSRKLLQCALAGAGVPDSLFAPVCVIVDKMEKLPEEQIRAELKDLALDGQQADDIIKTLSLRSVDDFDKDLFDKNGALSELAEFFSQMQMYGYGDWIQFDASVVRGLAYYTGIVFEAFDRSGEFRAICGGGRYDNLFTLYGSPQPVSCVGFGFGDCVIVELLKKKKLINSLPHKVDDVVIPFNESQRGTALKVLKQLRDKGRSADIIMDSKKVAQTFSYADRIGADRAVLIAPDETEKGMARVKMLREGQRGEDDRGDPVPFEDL

A: 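Enzyme assay of CoaBC with a phosphate dye (Biomol Green) read at 650 nm. Target: Coenzyme A biosynthesis protein CoaBC, Mycobacterium tuberculosis (UniProt P9WNZ1). Tested at 30 µM. Direction is inferred from only a few compounds that gave an IC50; most scored high, so higher reads as stronger inhibition. Most strong results did not repeat in a second test. Size under these conditions: about 67,000 compounds, about 40 of them at 50% or above in at least one test.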
B: 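Assay of Toxoplasma gondii numbers, read through their beta-galactosidase reporter with a colour substrate. Tested at 10 µM. The record gives no direction; the compounds picked for IC50 retests had high values, so higher reads as fewer parasites. Size under these conditions: about 67,000 compounds, about 260 of them at 50% or above in at least one test.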
C: 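Cell assay of Leishmania donovani living inside macrophages; the read-out is not stated. Compounds at 30 µM. Higher reads as stronger inhibition (inferred: compounds with an IC50 in retests scored well above the rest). About 69,000 compounds were tested under these conditions; 1.5% (about 1,000) showed 50% or more at least once.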
D: 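Tryptophan-tRNA ligase, Mycobacterium tuberculosis (UniProt P9WFT3). Enzyme assay of tryptophanyl-tRNA synthetase; the read-out is not stated. Compounds at 10 µM. Direction is not recorded; retested compounds ran higher, which suggests that high means inhibition. Size under these conditions: about 65,000 compounds, about 64 of them at 50% or above in at least one test.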
E: 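Enzyme assay of histidyl-tRNA synthetase; the read-out is not stated. Target: Histidine-tRNA ligase, Leishmania infantum (UniProt A4I591). Tested at 30 µM. The record gives no direction; compounds that gave an IC50 in retests scored well above the rest, so higher reads as stronger inhibition. The assay is labelled LdHisRS but filed under L. infantum. About 69,000 compounds were tested under these conditions; 0.6% (about 410) showed 50% or more at least once.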

Results are given as percent effect.
The controls that fix the scale are not given in the record; negative values are as filed.
Compounds were drawn at random from those tested, without regard to their results.
Two or more numbers in one place are separate tests of the same structure; such repeats can differ widely.

Result for O=C(NCCc1nncn1C1CC1)C1(c2ccccc2)CCC1 was A: -0.813%; B: 4.23%; C: -15.4%; D: -8.249%; E: 7.563%.
Result for Cc1ccc(CNC(=O)N2CCOCC2C2CC2)cc1F (stereo not drawn) was A: 6.725%; B: 0.219%; C: -4.215%; D: -4.499%; E: -3.125%.
Result for CCC1CN(Cc2nnc(C(C)C)o2)CCC(=O)N1Cc1ccccc1 (stereo not drawn) was A: -2.122%; B: -2.489%; C: -23.35%; D: 4.222%; E: 14.88%.
Result for CC(C)C(C(=O)N1CCCN(c2nccs2)CC1)n1cncn1 (stereo not drawn) was A: 2.041%; B: -7.116%; C: 30.63%; D: -4.191%; E: 9.091%.
Result for CN1CC(C(=O)N2CCC(Oc3ccccc3Cl)CC2)CC1=O (stereo not drawn) was A: -4.507%; B: 8.192%; C: 14.77%; D: -0.4295%; E: 11.83%.
Result for O=C(c1n[nH]c2ccccc12)N1CCCC1c1noc(C2CC2)n1 (stereo not drawn) was A: 6.17%; C: 19.72%; D: 2.754%; E: 12.36%.
Result for CC(=O)N1CCCN(C(=O)NCc2ccccn2)CC1 was A: 1.836%; B: -3.327%; C: -14.83%; D: -6.53%; E: 1.515%.
Result for NC(=O)C1CNCCN1C(=O)COc1ccccc1 (stereo not drawn) was A: -7.692%; D: -6.167%; E: 8.511%.
Result for Cc1nc2sccn2c1CN(CCCN(C)C)Cc1ccco1.O=C(O)CC(O)(CC(=O)O)C(=O)O was B: 28.53%; C: 41.01%.
Result for N#Cc1ccc(OCCN2CCc3cncnc3C2)cc1 was A: -4.773%; B: -38.46%; C: 16.11%; D: -2.206%; E: 28.57%.
Result for Cc1nnc(NC(=O)NCCN(C(=O)OC(C)(C)C)C2CC2)s1 was A: 3.694%; B: 4.59%; C: -12.52%; D: 2.965%; E: 14.51%.
Result for Cc1cnn(CC2CCCN2C(=O)c2sccc2-n2cnnn2)c1 (stereo not drawn) was A: 2.193%; B: -17.62%; C: 37.86%; D: -6.772%; E: 0%.
Result for COc1cc(F)c(CN2CC[C@@](O)(C3CC3)[C@H](C)C2)cc1OC was A: 2.97%; B: -5.639%; C: 32.56%; D: -2.559%; E: 8%.
Result for Cc1cc(C)c2[nH]c(=O)c(CN3CCC(O)(CN(C)C)C3)cc2c1 (stereo not drawn) was A: 1.985%; B: -4.272%; C: 18.11%; D: 0.698%; E: 14.89%.
Result for COc1cc(C(=O)NCCc2ccc(OC)c(OC)c2)on1 was A: -1.057%; B: -1.802%; C: -6.733% and 3.152%; D: 3.419%; E: 5.217%.
Result for CN(C)S(=O)(=O)c1ccc(CNc2ccc(Cl)cn2)cc1 was A: -5.95%; B: 1.467%; C: 4.909%; D: -1.31%; E: 7.042%.
Result for CC(C)(C)C(=O)NCc1cnn2ccccc12 was A: -2.521%; B: 0.5634%; C: 20.25%; D: 4.46%; E: 12.82%.

Repeated from the top, 2 entries:

For O=C(NCCc1nncn1C1CC1)C1(c2ccccc2)CCC1 the result was A: -0.813%; B: 4.23%; C: -15.4%; D: -8.249%; E: 7.563%.
For Cc1ccc(CNC(=O)N2CCOCC2C2CC2)cc1F (stereo not drawn) the result was A: 6.725%; B: 0.219%; C: -4.215%; D: -4.499%; E: -3.125%.

The values are deposited in ChEMBL (CHEMBL3988442, “University of Dundee, Small-Polar-MMV Screening Library” (2021)).